Source: paper PMC12660846
Results are given in words; binding and its absence hold for the method and conditions named. In cells and extracts the contact can be indirect. Here binding means that the protein was enriched with, or labelled near, the bait; the list need not be complete.

Sequences of proteins named here, by UniProt entry; tags and fusion partners are left off. Residues count along the entry.
UniProt P27467, residues 19-352: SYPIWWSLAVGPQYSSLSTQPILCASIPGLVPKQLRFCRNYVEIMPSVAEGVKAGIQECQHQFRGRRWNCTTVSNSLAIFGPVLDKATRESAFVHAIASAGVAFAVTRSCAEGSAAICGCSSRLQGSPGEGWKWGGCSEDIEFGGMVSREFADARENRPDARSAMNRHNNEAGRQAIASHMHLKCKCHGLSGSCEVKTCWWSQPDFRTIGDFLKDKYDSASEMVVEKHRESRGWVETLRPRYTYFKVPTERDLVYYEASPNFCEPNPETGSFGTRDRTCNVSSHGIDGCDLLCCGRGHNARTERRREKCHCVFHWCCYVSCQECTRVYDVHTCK
UniProt P11171: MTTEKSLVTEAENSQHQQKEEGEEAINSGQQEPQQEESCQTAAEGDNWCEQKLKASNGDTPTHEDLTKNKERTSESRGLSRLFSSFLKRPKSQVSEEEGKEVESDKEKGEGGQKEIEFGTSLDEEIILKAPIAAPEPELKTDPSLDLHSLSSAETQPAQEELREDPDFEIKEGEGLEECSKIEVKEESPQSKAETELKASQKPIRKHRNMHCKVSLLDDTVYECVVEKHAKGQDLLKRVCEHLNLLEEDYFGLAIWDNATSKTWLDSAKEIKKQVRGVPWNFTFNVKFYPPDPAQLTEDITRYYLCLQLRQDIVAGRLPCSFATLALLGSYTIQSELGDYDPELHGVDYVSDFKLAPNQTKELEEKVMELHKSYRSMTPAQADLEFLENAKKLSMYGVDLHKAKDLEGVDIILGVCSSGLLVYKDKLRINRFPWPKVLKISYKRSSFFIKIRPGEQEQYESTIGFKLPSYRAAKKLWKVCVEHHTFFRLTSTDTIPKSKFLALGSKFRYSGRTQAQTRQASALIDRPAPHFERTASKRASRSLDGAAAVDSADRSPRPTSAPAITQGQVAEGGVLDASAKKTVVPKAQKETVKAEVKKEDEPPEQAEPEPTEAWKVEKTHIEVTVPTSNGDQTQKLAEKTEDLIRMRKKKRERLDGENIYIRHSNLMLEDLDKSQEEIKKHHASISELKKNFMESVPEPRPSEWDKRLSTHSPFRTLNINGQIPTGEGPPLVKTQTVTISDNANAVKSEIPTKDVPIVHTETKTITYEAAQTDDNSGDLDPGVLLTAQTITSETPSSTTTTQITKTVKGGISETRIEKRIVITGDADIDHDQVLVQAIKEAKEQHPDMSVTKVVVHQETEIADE
UniProt Q03135: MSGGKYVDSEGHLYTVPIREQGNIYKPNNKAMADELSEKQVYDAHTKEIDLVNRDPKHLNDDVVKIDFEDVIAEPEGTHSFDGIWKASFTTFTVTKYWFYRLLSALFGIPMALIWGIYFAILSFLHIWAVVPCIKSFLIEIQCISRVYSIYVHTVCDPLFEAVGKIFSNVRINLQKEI
UniProt O43795: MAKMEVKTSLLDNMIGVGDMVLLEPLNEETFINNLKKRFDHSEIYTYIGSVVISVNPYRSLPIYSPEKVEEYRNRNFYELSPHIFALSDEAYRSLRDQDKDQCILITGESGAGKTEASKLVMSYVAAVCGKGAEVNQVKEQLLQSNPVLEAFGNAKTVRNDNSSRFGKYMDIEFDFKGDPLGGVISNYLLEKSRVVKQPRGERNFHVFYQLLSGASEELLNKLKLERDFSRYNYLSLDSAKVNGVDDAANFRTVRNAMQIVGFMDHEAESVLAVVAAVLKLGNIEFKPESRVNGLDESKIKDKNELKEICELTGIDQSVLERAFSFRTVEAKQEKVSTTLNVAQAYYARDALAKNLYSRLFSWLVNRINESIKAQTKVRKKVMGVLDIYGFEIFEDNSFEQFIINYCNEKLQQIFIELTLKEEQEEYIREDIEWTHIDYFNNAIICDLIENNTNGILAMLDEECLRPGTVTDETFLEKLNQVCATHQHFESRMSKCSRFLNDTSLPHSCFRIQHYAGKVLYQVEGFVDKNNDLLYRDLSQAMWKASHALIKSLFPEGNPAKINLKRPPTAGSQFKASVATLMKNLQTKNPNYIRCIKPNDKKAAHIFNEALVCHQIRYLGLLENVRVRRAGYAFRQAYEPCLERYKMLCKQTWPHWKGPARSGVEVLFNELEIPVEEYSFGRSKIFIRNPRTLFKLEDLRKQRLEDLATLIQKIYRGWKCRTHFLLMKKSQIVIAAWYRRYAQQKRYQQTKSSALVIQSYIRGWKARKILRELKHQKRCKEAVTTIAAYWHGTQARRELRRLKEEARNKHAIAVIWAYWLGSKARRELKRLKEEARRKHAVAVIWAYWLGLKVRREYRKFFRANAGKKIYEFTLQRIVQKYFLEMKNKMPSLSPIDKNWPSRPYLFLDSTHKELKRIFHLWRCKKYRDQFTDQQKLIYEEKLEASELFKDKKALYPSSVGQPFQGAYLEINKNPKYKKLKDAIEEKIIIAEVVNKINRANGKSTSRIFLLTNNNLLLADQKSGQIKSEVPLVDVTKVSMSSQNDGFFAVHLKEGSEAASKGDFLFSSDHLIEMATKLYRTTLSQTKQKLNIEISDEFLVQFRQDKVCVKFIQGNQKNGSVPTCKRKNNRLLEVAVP
UniProt P31431, residues 19-198: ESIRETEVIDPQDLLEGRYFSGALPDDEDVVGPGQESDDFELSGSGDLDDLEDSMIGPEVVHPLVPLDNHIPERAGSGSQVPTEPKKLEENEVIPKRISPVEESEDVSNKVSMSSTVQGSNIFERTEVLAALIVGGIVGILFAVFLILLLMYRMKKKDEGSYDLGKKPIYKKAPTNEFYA
UniProt P08754: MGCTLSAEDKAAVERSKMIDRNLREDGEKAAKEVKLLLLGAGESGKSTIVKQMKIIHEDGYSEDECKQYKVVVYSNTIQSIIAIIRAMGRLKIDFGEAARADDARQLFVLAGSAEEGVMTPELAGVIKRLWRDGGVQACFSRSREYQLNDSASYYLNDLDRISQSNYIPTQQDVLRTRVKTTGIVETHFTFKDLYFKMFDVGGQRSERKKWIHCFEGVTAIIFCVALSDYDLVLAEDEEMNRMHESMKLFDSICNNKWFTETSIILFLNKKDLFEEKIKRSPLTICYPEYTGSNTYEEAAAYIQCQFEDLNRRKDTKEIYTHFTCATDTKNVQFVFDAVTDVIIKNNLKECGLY
UniProt O00139: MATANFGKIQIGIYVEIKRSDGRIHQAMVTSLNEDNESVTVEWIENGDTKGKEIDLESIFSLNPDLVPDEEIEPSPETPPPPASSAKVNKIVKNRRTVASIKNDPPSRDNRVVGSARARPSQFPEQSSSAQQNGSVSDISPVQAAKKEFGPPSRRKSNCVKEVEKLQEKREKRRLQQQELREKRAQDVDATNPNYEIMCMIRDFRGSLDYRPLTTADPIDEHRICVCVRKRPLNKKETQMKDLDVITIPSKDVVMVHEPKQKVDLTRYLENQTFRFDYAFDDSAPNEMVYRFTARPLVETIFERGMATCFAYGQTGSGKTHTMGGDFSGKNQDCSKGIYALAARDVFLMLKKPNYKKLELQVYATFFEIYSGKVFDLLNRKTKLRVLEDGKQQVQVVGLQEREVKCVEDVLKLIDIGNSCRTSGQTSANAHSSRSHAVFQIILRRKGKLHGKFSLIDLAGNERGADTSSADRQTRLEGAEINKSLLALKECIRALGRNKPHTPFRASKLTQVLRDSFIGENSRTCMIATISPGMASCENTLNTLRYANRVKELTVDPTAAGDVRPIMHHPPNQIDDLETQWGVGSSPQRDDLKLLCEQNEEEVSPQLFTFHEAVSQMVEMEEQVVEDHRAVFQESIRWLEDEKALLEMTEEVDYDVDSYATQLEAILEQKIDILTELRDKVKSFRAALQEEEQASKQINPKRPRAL
UniProt P30153: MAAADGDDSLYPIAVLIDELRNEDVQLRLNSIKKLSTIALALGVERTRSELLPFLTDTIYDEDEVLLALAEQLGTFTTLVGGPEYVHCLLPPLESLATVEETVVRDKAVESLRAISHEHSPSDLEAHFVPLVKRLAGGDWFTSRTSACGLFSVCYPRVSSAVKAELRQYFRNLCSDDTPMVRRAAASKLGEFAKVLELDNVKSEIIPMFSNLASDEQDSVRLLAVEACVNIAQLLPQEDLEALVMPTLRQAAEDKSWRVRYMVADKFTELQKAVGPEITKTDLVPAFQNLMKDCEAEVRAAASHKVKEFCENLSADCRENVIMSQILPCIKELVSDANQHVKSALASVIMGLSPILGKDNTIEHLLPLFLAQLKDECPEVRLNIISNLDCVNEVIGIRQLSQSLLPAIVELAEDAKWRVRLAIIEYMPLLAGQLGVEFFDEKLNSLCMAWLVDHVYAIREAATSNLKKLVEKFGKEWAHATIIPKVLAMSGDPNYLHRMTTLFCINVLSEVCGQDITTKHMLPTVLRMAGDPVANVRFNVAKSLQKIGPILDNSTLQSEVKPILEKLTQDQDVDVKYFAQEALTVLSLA
UniProt Q14980: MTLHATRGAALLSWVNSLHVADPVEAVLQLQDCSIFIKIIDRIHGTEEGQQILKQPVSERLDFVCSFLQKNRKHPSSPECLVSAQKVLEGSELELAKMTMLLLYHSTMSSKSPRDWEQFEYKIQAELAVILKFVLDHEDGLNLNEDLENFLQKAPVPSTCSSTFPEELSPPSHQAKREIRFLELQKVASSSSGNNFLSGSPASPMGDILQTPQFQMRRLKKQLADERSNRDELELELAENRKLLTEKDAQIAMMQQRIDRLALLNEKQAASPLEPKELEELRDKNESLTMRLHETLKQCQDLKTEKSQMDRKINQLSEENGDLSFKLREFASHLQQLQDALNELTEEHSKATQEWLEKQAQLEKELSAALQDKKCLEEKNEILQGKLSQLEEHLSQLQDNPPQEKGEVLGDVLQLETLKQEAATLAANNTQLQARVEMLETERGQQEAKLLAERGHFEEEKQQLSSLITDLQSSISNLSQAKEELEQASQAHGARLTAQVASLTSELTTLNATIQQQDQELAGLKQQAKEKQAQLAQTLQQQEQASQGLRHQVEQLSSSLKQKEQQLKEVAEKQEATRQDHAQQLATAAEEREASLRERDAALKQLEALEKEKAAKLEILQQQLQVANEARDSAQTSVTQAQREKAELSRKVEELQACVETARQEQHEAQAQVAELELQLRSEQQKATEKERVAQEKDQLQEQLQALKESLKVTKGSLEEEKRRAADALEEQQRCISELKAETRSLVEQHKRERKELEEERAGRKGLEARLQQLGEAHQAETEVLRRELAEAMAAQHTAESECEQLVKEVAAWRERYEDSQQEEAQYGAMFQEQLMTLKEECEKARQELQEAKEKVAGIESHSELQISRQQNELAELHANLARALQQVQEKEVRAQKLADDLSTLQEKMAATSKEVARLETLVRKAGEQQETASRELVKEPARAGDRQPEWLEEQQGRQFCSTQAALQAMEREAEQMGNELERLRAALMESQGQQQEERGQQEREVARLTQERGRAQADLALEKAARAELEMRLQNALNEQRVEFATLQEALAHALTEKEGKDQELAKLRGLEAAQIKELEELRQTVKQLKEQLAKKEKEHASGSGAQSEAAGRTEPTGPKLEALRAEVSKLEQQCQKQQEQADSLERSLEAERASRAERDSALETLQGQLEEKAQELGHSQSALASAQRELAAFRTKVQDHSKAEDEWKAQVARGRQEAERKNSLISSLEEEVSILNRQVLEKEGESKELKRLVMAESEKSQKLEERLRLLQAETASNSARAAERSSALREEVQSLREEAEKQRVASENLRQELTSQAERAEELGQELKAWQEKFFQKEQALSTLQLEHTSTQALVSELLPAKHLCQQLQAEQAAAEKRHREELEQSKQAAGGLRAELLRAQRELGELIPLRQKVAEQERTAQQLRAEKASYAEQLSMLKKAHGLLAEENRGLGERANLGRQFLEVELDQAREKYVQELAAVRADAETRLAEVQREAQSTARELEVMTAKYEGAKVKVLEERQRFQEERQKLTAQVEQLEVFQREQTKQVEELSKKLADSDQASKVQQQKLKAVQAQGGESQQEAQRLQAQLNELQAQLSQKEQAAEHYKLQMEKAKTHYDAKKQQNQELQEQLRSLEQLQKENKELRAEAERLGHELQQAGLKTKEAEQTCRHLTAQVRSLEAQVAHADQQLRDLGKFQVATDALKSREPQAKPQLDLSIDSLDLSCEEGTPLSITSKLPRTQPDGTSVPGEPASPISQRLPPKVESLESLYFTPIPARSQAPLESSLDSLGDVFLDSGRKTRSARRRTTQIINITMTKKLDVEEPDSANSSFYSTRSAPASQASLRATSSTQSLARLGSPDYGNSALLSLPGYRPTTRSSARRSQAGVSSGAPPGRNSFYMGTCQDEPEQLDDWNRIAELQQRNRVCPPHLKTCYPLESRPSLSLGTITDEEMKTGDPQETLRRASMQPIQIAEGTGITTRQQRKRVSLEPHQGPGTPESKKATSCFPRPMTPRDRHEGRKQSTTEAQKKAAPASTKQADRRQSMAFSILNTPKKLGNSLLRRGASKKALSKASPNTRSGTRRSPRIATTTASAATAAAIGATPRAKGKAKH

Target: murine Wnt3a (mouse) (UniProt P27467)
Assay: affinity purification with mass spectrometry; murine Wnt3a covalently immobilised on magnetic Dynabeads, added to live HeLa cells with MG132 (metaphase arrest, 1 h); shake-off, lysis in 0.2% NP-40 without clearing, magnetic isolation, 3 washes; LC-MS/MS against BSA-coated beads, triplicate; only the target purified

Molecule	binding
4.1R (from UniProt P11171 1-864)	binds
CENP-F (from UniProt P49454 1-3114)	binds
CK2α (from UniProt P68400 1-391) (enzyme)	binds
MACF1 (from UniProt Q9UPN3 1-7388)	binds
caveolin-1 (from UniProt Q03135 1-178)	binds
myosin1B (from UniProt O43795 1-1136)	binds
syndecan-4 (from UniProt P31431 19-198)	binds
R-spondin-3 (protein, UniProt Q9BXY4 22-272) QNASRGRRQRRMHPNVSQGCQGGCATCSDYNGCLSCKPRLFFALERIGMKQIGVCLSSCPSGYYGTRYPDINKCTKCKADCDTCFNKNFCTKCKSGFYLHLGKCLDNCPEGLEANNHTMECVSIVHCEVSEWNPWSPCTKKGKTCGFKRGTETRVREIIQHPSAKGNLCPPTNETRKCTVQRKKCQKGERGKKGRERKRKKPNKGESKEAIPDSKSLESSKEIPEQRENKQQQKKRKVQDKQKSVSVSTVH	binds
syndecan-1 (protein, UniProt P18827 23-310) QIVATNLPPEDQDGSGDDSDNFSGSGAGALQDITLSQQTPSTWKDTQLLTAIPTSPEPTGLEATAASTSTLPAGEGPKEGEAVVLPEVEPGLTAREQEATPRPRETTQLPTTHLASTTTATTAQEPATSHPHRDMQPGHHETSTPAGPSQADLHTPHTEDGGPSATERAAEDGASSQLPAAEGSGEQDFTFETSGENTAVVAVEPDRRNQSPVDQGATGASQGLLDRKEVLGGVIAGGLVGLIFAVCLVGFMLYRMKKKDEGSYSLEEPKQANGGAYQKPTKQEEFYA	binds

The remaining lines, values ahead:

binding	Molecule
binds	Gαi3 (from UniProt P08754 1-354)
binds	MT depolymerase Kif2A (from UniProt O00139 1-706)
binds	PP2A phosphatase regulator PPP2R1A (from UniProt P30153 1-589)
binds	nuclear mitotic apparatus protein (NuMA) (from UniProt Q14980 1-2115)
